Data: article PMC7504119
These are yes or no findings as the source states them, for the method shown. In cells and extracts the contact can be indirect. A yes stands for co-enrichment or nearness to the bait. Other partners may have been found. For some of these results: Tags and fused reporters may be left off the sequences shown.

The chains behind the UniProt entries cited, without tags or fusion partners. Residues count along the entry.
UniProt P25705, residues 44-553: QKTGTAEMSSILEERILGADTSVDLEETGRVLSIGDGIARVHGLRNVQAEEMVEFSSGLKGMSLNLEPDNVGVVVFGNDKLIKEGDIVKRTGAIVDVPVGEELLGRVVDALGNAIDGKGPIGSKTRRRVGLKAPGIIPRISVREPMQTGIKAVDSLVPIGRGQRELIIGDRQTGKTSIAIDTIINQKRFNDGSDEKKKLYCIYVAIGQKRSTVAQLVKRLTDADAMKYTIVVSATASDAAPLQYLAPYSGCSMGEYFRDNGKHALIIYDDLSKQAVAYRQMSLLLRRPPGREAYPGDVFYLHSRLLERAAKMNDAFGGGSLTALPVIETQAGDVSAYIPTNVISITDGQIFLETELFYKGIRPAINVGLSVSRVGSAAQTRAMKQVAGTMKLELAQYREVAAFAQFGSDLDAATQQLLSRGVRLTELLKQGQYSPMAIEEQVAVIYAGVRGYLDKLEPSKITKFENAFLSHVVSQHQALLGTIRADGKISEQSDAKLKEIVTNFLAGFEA

T1: FLAG-SBP-Sestrin2 (human) (UniProt P58004)
T1 sequence: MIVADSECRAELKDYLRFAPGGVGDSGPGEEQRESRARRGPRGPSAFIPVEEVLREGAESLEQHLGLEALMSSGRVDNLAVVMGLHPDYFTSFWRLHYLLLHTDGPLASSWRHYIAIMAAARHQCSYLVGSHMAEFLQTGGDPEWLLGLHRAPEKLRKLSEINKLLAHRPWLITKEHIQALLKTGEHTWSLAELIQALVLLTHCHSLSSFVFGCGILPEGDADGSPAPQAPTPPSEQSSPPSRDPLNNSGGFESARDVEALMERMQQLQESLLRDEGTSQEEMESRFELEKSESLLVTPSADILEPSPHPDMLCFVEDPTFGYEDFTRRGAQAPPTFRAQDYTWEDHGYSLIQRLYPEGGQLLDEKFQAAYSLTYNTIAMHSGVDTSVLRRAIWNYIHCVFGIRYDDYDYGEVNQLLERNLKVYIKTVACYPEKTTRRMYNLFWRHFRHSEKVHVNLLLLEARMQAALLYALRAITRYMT

T2: endogenous Sestrin2 (HEK293) (human (endogenous in HEK293)) (UniProt P58004)
T2 sequence: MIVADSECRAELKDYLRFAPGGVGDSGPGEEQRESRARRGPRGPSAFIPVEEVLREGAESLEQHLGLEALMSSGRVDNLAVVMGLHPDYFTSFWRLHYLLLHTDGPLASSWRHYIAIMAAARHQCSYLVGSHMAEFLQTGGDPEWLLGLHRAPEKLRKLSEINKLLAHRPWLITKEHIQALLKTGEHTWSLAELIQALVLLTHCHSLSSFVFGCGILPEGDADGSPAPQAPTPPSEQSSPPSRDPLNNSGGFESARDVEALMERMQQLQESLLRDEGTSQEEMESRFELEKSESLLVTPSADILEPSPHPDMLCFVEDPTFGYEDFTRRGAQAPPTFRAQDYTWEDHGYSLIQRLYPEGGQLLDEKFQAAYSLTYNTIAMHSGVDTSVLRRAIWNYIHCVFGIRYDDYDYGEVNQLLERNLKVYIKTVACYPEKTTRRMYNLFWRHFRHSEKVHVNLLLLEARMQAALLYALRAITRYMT


Experiments:
[1] = molecular target: T1, FLAG-SBP-Sestrin2 (human); assay: affinity purification with mass spectrometry; tandem affinity purification of FLAG-SBP-Sestrin2 from MCF-10A lysate (0.3% CHAPS): FLAG antibody resin, 3x FLAG peptide elution, streptavidin resin, biotin elution; LC/ESI MS/MS; proteins also found in the vector control taken as false-positive
[2] = molecular target: T2, endogenous Sestrin2 (HEK293) (human (endogenous in HEK293)); assay: affinity purification with mass spectrometry; mitochondria isolated from HEK293 cells; endogenous Sestrin2 immune-purified with Sestrin2-specific antibody; LC-ESI-MS/MS

Molecule	binding [1]	binding [2]
sulfide quinone oxidoreductase (SQRDL) (human (endogenous in MCF-10A))	binds	
mitochondrial ATP synthase, F1 complex, alpha subunit 1 (ATP5A), endogenous in MCF-10A (from UniProt P25705 44-553)	binds	

Second part, the molecule after the results:

binding [1]	binding [2]	Molecule
	binds	endogenous ATP5A (HEK293) (from UniProt P25705 44-553)
binds		acyl-CoA synthetase long-chain family member 5 (ACSL5) (protein, UniProt Q9ULC5 1-683) MLFIFNFLFSPLPTPALICILTFGAAIFLWLITRPQPVLPLLDLNNQSVGIEGGARKGVSQKNNDLTSCCFSDAKTMYEVFQRGLAVSDNGPCLGYRKPNQPYRWLSYKQVSDRAEYLGSCLLHKGYKSSPDQFVGIFAQNRPEWIISELACYTYSMVAVPLYDTLGPEAIVHIVNKADIAMVICDTPQKALVLIGNVEKGFTPSLKVIILMDPFDDDLKQRGEKSGIEILSLYDAENLGKEHFRKPVPPSPEDLSVICFTSGTTGDPKGAMITHQNIVSNAAAFLKCVEHAYEPTPDDVAISYLPLAHMFERIVQAVVYSCGARVGFFQGDIRLLADDMKTLKPTLFPAVPRLLNRIYDKVQNEAKTPLKKFLLKLAVSSKFKELQKGIIRHDSFWDKLIFAKIQDSLGGRVRVIVTGAAPMSTSVMTFFRAAMGCQVYEAYGQTECTGGCTFTLPGDWTSGHVGVPLACNYVKLEDVADMNYFTVNNEGEVCIKGTNVFKGYLKDPEKTQEALDSDGWLHTGDIGRWLPNGTLKIIDRKKNIFKLAQGEYIAPEKIENIYNRSQPVLQIFVHGESLRSSLVGVVVPDTDVLPSFAAKLGVKGSFEELCQNQVVREAILEDLQKIGKESGLKTFEQVKAIFLHPEPFSIENGLLTPTLKAKRGELSKYFRTQIDSLYEHIQD
